In US20200165354A1 (WUXI BIOLOGICS IRELAND, published 2020):
No constants are given. Whether binding was seen depends on the method and setting. Some results given as binding are weak or reduced against the parent protein; the word gives no strength.

Sequences of proteins named here, by UniProt entry; tags and fusion partners are left off. A change or cut given only in a name is not applied to a line headed by its entry.
UniProt Q8NBP7: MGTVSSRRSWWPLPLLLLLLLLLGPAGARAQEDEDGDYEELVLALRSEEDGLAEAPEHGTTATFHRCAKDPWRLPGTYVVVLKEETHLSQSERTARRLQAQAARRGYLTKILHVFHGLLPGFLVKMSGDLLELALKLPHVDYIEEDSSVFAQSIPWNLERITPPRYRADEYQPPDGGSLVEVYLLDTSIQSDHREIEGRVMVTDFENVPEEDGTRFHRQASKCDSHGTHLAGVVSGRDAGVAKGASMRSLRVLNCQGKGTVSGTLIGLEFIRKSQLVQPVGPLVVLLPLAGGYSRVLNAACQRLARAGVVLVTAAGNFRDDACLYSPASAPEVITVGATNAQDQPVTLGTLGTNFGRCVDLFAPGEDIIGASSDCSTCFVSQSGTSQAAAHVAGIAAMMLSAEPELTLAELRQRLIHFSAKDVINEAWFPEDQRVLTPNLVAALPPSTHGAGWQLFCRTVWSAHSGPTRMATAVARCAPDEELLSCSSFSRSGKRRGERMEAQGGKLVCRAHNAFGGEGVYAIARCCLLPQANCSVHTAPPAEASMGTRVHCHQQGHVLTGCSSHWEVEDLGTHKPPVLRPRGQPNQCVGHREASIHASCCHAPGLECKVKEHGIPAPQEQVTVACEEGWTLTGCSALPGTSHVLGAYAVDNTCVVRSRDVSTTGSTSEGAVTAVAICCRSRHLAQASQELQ

Assays:
[1] = target: human PCSK9 with C-terminal 6-His tag, biotin-labelled (PCSK9-His-biotin) (human) (UniProt Q8NBP7); test: ELISA binding assay
[2] = target: human PCSK9 with C-terminal 6-His tag, biotin-labelled (PCSK9-His-biotin) (human) (UniProt Q8NBP7); test: ELISA binding and blocking
[3] = target: T1, human PCSK9 (construct not stated) (human, UniProt Q8NBP7 31-692, limits assumed); test: binding ELISA on human PCSK9, A450
[4] = target: T1, human PCSK9 (construct not stated); test: blocking ELISA of the binding of PCSK9 to LDL-R, A450; blocked ligand: LDL-R
[5] = target: T1, human PCSK9 (construct not stated); test: ELISA on biotin-labeled PCSK9 captured on streptavidin, after incubation in human serum at 37 C
[6] = target: T1, human PCSK9 (construct not stated); test: ELISA, biotin-labelled PCSK9 on a streptavidin plate, antibody pre-incubated in human serum at 37 C for 0 or 3 days, goat anti-human-HRP, OD450

- binding [1]: binds
- binding [2]: binds
- binding [3]: binds
- binding [4]: binds
- binding [5]: binds
- binding [6]: binds
B1: 2.12.12.4-z4-uIgG4k (antibody, V domains shown)
VH: QVQLVQSGAEVKKPGSSVKVSCEASGYTFTNYVMHWVRQAPGQGLEWMGYINPYNDYIKYNEKFKGKATITADKSTSTAYMELSSLRSEDTAVYYCGRQRYYGYRPYYAMDYWGQGTLVTVSS
VL: DIVLTQSPASLAVSPGQRATITCRASESVDGYGNVFMHWYQQKPGQPPKLLIYLASNLESGVPARFSGSGSGTDFTLTINPVEANDTANYYCQQNNKDPWTFGGGTKVEIK
notes: the chains here are derived by undoing them; Human constant region of IgG4 isotype, kappa light chain
